The values below come from paper PMC3323469 (EJNMMI Research, 2012).

Square brackets hold non-standard residues; d marks the D form. * marks the point of attachment. NOTA = O=C(O)CN1CCN(CC(=O)O)CCN(CC(=O)*)CC1; 2Thi = N[C@@H](Cc1cccs1)C(=O)O; Nle = CCCC[C@H](N)C(=O)O; AEEA = NCCOCCOCC(=O)O; βAla = NCCC(=O)O

A short description of this series: general procedure: Fmoc solid-phase peptide synthesis; NovaSyn TGR resin and Sieber amide resin; PyBOP; HATU; ClHOBT; DIEA. The settings on record: whole synthesis.

On to “{NOTA-AEEA}-[dY]QWAV[βAla]H[2Thi][Nle]-NH2 (SMILES CCCC[C@H](NC(=O)[C@H](Cc1cccs1)NC(=O)[C@H](Cc1c[nH]cn1)NC(=O)CCNC(=O)[C@@H](NC(=O)[C@H](C)NC(=O)[C@H](Cc1c[nH]c2ccccc12)NC(=O)[C@H](CCC(N)=O)NC(=O)[C@@H](Cc1ccc(O)cc1)NC(=O)COCCOCCNC(=O)CN1CCN(CC(=O)O)CCN(CC(=O)O)CC1)C(C)C)C(N)=O)”, for which the “final HPLC purity” value (analytical HPLC) stood at 99%. For the same substance, under “overall, based on substitution rate of the resin”, the isolated yield was 38%.
